The values below come from publication doi:10.1101/2024.12.01.621710 (bioRxiv, 2024).

Results are given in words; binding and its absence hold for the method and conditions named. In cells and extracts the contact can be indirect. Binding can be weak; no strength is given.

Experiment [1] concerns the target IncA-FLAG (Chlamydia trachomatis serovar L2 (LGV 434/Bu)). The experiment in a line: co-IP.
The target of experiment [2] is CpoS-HA, full length (CTL0481) (Chlamydia trachomatis serovar L2 (LGV 434/Bu)). The experiment in a line: co-IP.

Regarding “CpoS-HA, full length (CTL0481) (from UniProt A0A0H3MBY4)”, in experiment [1], the binding result is recorded as “binds”.
On to eGFP-Rab35 (from UniProt Q15286 1-201), for which the binding entry in experiment [2] is on record as “binds”.
